Test results as given in PubChem BioAssay AID504444 (National Center for Advancing Translational Sciences (NCATS), 2011).
The whole screen tested about 360,000 compounds, of which about 7,500 (2.1%) were called active. Inconclusive results, whose numbers are uncertain, are shown with a selection of clear calls. Calls follow the shape of the dose curve; as a rule, active = well fitted inhibition curve with a large enough effect; inconclusive = small, poorly fitted or top-dose-only effect, or effect the other way; inactive = flat fitted curve, though single readings scatter. Potencies of inconclusive entries are doubtful fits and often do not repeat.

Test: Nrf2 qHTS screen for inhibitors; also: nearly all actives have a fitted effect of over 60% in size
Conditions: A549 ARE-Fluc reporter, luciferase luminescence, 18-24 h; activity change, negative = inhibition: at 46 µM (top of the series)
Method in brief: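 Two sequential reads on A549 ARE_Fluc cells exposed to compound for 18-24 h: a CellTiter-Fluor fluorescence read for viability, then a luciferase luminescence read for Nrf2/ARE activity.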
% is scaled to controls: 0 for no effect and ±100 for the full control effect; potency is read from the fitted curve at half-maximal effect.

**Q.** For O=C(NCCO)C1CCN(S(=O)(=O)c2ccc(F)cc2)CC1, which Potency is on record?
**A.** inconclusive: 0.0651 µM [falling, full curve, poor fit]

**Q.** Which Potency does the source give for CCc1ccc(NC(=O)c2cc(-c3ccc4c(c3)OCO4)on2)cc1 here?
**A.** inconclusive: 10.3 µM [activator, partial curve]

**Q.** For O=C(NCCc1ccccc1)c1ccccc1NC(=O)C1CC=CCC1C(=O)O (configuration not stated), which Potency is on record?
**A.** inconclusive: 25.9 µM [activator, single point]

**Q.** With Cc1ccc(SCc2ccc(C(=O)Nc3nccs3)o2)cc1 as the compound, how does the Potency read?
**A.** inconclusive: 4.61 µM [activator, single point]

**Q.** With O=C(NNC1CC(=O)N(c2ccc(Cl)cc2)C1=O)c1ccccn1 (configuration not stated) as the compound, how does the “activity change, negative = inhibition” value read?
**A.** inactive: 9.86%

**Q.** With COC(=O)c1ccccc1NC(=O)CSc1nc(-c2ccccc2)cc(C(F)(F)F)n1 as the compound, how does the Potency read?
**A.** inconclusive: 0.82 µM [falling, partial curve, poor fit]

**Q.** Which “activity change, negative = inhibition” value does the source give for CC(=O)c1ccc(NC(=O)c2ccc3c(c2)N(Cc2cccc(Cl)c2)C(=O)c2ccccc2S3(=O)=O)cc1 here?
**A.** inactive: 11.2%

**Q.** Which Potency does the source give for CCOC(=O)C1(Cc2ccc(Cl)cc2)CCN(C(C)Cc2ccc(O)c(OC)c2)CC1 (configuration not stated) here?
**A.** inconclusive: 23.1 µM [falling, single point]

**Q.** For Cc1cccc(-c2noc(CNC(=O)Nc3ccc(F)cc3)n2)c1, which Potency is on record?
**A.** inconclusive: 20.6 µM [falling, partial curve]

**Q.** With CC1CCCCN1C(=O)CCS(=O)(=O)c1cccc2nonc12 (configuration not stated) as the compound, how does the Potency read?
**A.** inconclusive: 29.1 µM [activator, single point]

**Q.** With Cc1ccc(Nc2nnc(SCC(=O)Nc3cccc(S(=O)(=O)NC4=NCCCCC4)c3)s2)cc1 as the compound, how does the Potency read?
**A.** inconclusive: 20.6 µM [falling, single point]

**Q.** For CC(=O)c1cccc(Nc2cc(C)nc3ccccc23)c1, which Potency is on record?
**A.** inconclusive: 23.1 µM [falling, partial curve, poor fit]

**Q.** For COc1ccc(NC(=O)CN(C)C(=O)/C=C/c2ccc(S(=O)(=O)N3CCCCCC3)cc2)cc1, which Potency is on record?
**A.** inconclusive: 32.6 µM [falling, partial curve, poor fit]

**Q.** Which “activity change, negative = inhibition” value does the source give for COc1ccc2c(c1)C1NC(=S)N[C@@](C)(O2)C1C(=O)Nc1ccccc1 (some centres not stated) here?
**A.** inactive: 5.86%

**Q.** For CS(=O)(=O)c1ccc2nc(NC(=O)Nc3cccc(Cl)c3)sc2c1, which Potency is on record?
**A.** inconclusive: 9.2 µM [falling, partial curve, poor fit]

**Q.** With CCOCCc1nn2c(=O)cc(COC(=O)COc3ccccc3Cl)nc2s1 as the compound, how does the Potency read?
**A.** inconclusive: 32.6 µM [activator, single point]

**Q.** With C/C(=N\NC(=O)COc1cccc(C)c1)c1ccc2ccccc2c1O as the compound, how does the Potency read?
**A.** inconclusive: 29.1 µM [falling, single point]
